# Experimental data published in PubChem BioAssay AID2685 (National Center for Advancing Translational Sciences (NCATS), 2010).
# The list shows a part of the results. These are further read-outs of the screen, such as a control signal, another cell line or another target. No call is given for them. Most of these compounds were active or inconclusive in the main read-out, so they are no random draw. The note in brackets gives the kind of curve behind each potency; many fits are weak.
# Assay: qHTS Assay for Lipid Storage Modulators in Drosophila S3 Cells;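 as to cell number change: cells counted by Cell Tracker Red CMTPX staining in the red channel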
# Settings: BODIPY lipid droplet fluorescence, 18-24 h; for cell number change: measured here: cell count max response, cells fed with added oleic acid
# Summary of the method: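 Laser-scanning cytometry quantifies lipid droplet accumulation (500–530 nm total intensity; droplet/cell object ratio) in oleic acid-fed (400 uM added) Drosophila S3 cells treated with a concentration series. 20 uM Triacsin C defined 100% inhibition.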
# [1] = measured here: cell number channel AC50, cells fed with added oleic acid
# [2] = measured here: lipid fluorescence (Fed channel) AC50, cells fed with added oleic acid
SMILES,cell number change,AC50 [1],AC50 [2]
Cc1ccc([N+](=O)[O-])cc1-c1[nH]c(-c2ccc(O)c(O)c2)nc1-c1ccccc1,-11.2%,–,–
CCC1(C)Cc2ccccc2-c2nc(NN)[nH]c(=O)c21 (stereo not drawn),-33.3%,"1160 nM [falling, full curve]",–
CCOC(=O)c1c(NC(=O)C2C3C=CC(C3)C2C(=O)O)sc2c1CC(C)(C)OC2 (stereo not drawn),-14%,–,"23100 nM [falling, single point]"
CC(c1ccccc1)c1nnc(NC(=O)Nc2ccccc2F)s1 (stereo not drawn),–,–,"1300 nM [falling, full curve]"
COc1cc2c3c(c1)C1(C(=O)N3C(C)(C)C=C2C)C(C#N)=C(N)Oc2cc(O)ccc21 (stereo not drawn),-13.8%,–,–
CC(C(=O)O)c1ccc2c(c1)[nH]c1ccc(Cl)cc12 (stereo not drawn),20.7%,–,"14600 nM [rising, partial curve]"
O=C(CN1C(=O)c2ccccc2C1=O)N1CCN(C(=O)c2ccco2)CC1,-2.21%,–,–
CN(C)CCNC(=O)C(=O)Nc1ccc2c(c1)N(S(=O)(=O)c1cccs1)CCC2,15.4%,–,–
Cc1cc(NC(=O)c2cccc(COc3ccc(Br)cc3)c2)no1,-0.112%,–,–
O=C(/C=C/c1ccncc1)c1ccc(NC(=O)c2ccccc2F)cc1,-50.5%,"29100 nM [falling, single point]","2910 nM [rising, single point]"
O=C(COC(=O)Cc1ccccc1F)NCCc1ccccc1,14.3%,–,"2310 nM [rising, partial curve]"
CC(=O)Nc1nc2ccccc2n1CCOc1ccccc1Cl,–,"461 nM [rising, partial curve, poor fit]","411 nM [rising, partial curve, poor fit]"
Fc1cccc(NCCc2c[nH]c3ccccc23)n1,-37.4%,"7310 nM [falling, partial curve]","29100 nM [falling, single point]"
O=C(C(NS(=O)(=O)c1cccs1)c1ccccc1)N1CCN(c2ccccc2F)CC1 (stereo not drawn),21.2%,–,"146 nM [rising, full curve]"
Cc1ccc(C)c(Cn2nnc(C(=O)Nc3ccc4c(c3)OCCO4)c2N)c1,-8.12%,–,"18400 nM [falling, partial curve]"
COc1ccc(C(=O)NC2CCCc3c2cnn3-c2ccccc2F)cc1OC (stereo not drawn),–,"2060 nM [falling, partial curve]","3260 nM [falling, partial curve]"
O=S(=O)(NCC1CCCO1)c1ccccc1 (stereo not drawn),9.26%,–,"29100 nM [rising, single point]"
COc1ccc(Cl)cc1NC(=O)CN(C)C(=O)CSc1ccc2c(c1)OCCO2,-34.9%,"16400 nM [falling, partial curve]","651 nM [falling, full curve, poor fit]"
COCCn1c(SCC(=O)NNC(=O)Cc2ccccc2)nc2ccccc2c1=O,1.34%,"231 nM [rising, partial curve, poor fit]",–
O=C(O)c1ccc(NS(=O)(=O)c2ccc(Cl)cc2)cc1,-21.1%,"1030 nM [falling, full curve, poor fit]",–
CCC(C)C(=O)Nc1nnc(SCC(=O)Nc2ccccc2F)s1 (stereo not drawn),–,"3260 nM [rising, single point]",–

# Taken from above.
# CC(C(=O)O)c1ccc2c(c1)[nH]c1ccc(Cl)cc12 (stereo not drawn) – cell number change: 20.7%
# Fc1cccc(NCCc2c[nH]c3ccccc23)n1 – AC50 [1]: 7310 nM [falling, partial curve]
# O=S(=O)(NCC1CCCO1)c1ccccc1 (stereo not drawn) – cell number change: 9.26%
# COc1cc2c3c(c1)C1(C(=O)N3C(C)(C)C=C2C)C(C#N)=C(N)Oc2cc(O)ccc21 (stereo not drawn) – cell number change: -13.8%
# O=C(CN1C(=O)c2ccccc2C1=O)N1CCN(C(=O)c2ccco2)CC1 – cell number change: -2.21%

# The listing continues.

SMILES,cell number change,AC50 [1],AC50 [2]
O=C(COc1ccc(Br)cc1Cl)NC1CCN(Cc2ccccc2)CC1,–,–,"29100 nM [rising, single point]"
CNC(=O)c1c(NC(=O)C2=COCCO2)sc2c1CCC(C)C2 (stereo not drawn),-9.83%,–,"29100 nM [falling, single point]"
O=C(NCCC1CCCCN1S(=O)(=O)c1ccccc1)C(=O)NCc1ccc(F)cc1 (stereo not drawn),-9.42%,–,"29100 nM [falling, single point]"
CC(C)NC(=O)NC(=O)COC(=O)c1ccc(S(=O)(=O)Nc2ccccc2)cc1,-44.9%,"920 nM [falling, full curve, poor fit]","1460 nM [falling, full curve]"
Cc1cccc(C(=O)N2CCN(Cc3nc4sc5c(c4c(=O)[nH]3)CCCC5)CC2)c1,21.8%,–,"116 nM [rising, single point]"
CCn1c2ccccc2c2cc(C3C(C#N)=C(C)NC(C)=C3C#N)ccc21,-17%,–,"1030 nM [rising, partial curve]"
CCOCCCNCc1cccc(OC)c1,6.34%,–,"5.17 nM [falling, full curve, poor fit]"
CC(NC(=O)NCCCC(=O)O)(C(F)(F)F)C(F)(F)F,–,–,"6510 nM [falling, single point]"
CC(C)NC(=O)c1ccccc1NC(=O)CN(c1ccc2c(c1)OCO2)S(C)(=O)=O,–,–,"580 nM [rising, single point]"
CC(=O)c1cn(CC(=O)Nc2ccccc2C)c2ccccc12,-7.47%,–,"29100 nM [falling, single point]"
Cc1ccc(CNC(=O)C2CC(=O)N(c3ccc(OCC(=O)N4CCCC4)cc3)C2)cc1 (stereo not drawn),-24.5%,–,"29100 nM [falling, single point]"
COc1ccccc1-c1noc2ncnc(Nc3cccc(C)c3)c12,7.78%,"164 nM [rising, full curve, poor fit]","116 nM [rising, full curve, poor fit]"
O=C1CCC(C(=O)Nc2cccc(S(=O)(=O)N3CCOCC3)c2)N1 (stereo not drawn),24.3%,–,"580 nM [falling, single point]"
Cc1c(NC(=O)c2c(N)sc3c2CCCC3)c(=O)n(-c2ccccc2)n1C,-5.12%,"6510 nM [falling, partial curve, poor fit]","3260 nM [falling, single point]"
CC(C)N(C(=O)CSc1nnc(NC(=O)Cc2cccs2)s1)C(C)C,-101%,–,"29100 nM [falling, single point]"
Cc1cc(NC(=O)CCCC(=O)NCc2cccs2)no1,3.4%,–,"29100 nM [falling, single point]"
O=C(NC1CCCC1)C(NS(=O)(=O)c1ccc(Br)s1)c1ccccc1 (stereo not drawn),3.21%,"4110 nM [rising, single point]","4110 nM [rising, full curve, poor fit]"
CCOC(=O)C1(Cc2ccccc2C)CCCN(C(=O)c2ccc(OC)o2)C1 (stereo not drawn),-34.7%,"16400 nM [falling, single point]","580 nM [rising, single point]"
CCn1c(CSc2nnc(-c3cccnc3)n2-c2ccccc2C)nc2cc(C(=O)O)ccc21,–,"3660 nM [falling, partial curve]",–
COc1ccccc1N1CCN(S(=O)(=O)c2ccc(Cl)s2)CC1,2.64%,–,–
CCCCc1cc2ccccc2c(OCCN(C)C)n1,39.5%,–,–

SMILES,cell number change,AC50 [1],AC50 [2]
O=C(NCC(c1ccco1)N1CCCCC1)c1cccc(S(=O)(=O)Nc2ccccc2Cl)c1 (stereo not drawn),14.8%,–,"29100 nM [rising, single point]"
Cc1ccc(OCC(=O)N/N=C2\CC(=O)CC(C)(C)C2)c(Br)c1,-2.55%,–,"23100 nM [rising, single point]"
N=C1C(=O)OCC1c1ccccc1NC(=O)c1ccccc1 (stereo not drawn),–,"1160 nM [rising, full curve]","1030 nM [falling, full curve]"
Cc1nn(CC(=O)O)c2ccccc12,4.67%,–,–
COc1cccc(N/C=C/C(=O)c2ccc(OC)c(OC)c2)c1,-33.3%,–,"29100 nM [falling, single point]"
Nn1c(SCc2ccccn2)nncc1=O,-4.07%,–,–
CC(C)C[C@@]12C(=O)N(c3cccc(F)c3)C(=O)N1[C@H](c1ccc(Cl)cc1)[C@@H]1C(=O)N(C3CCCCC3)C(=O)[C@@H]12,4.16%,"3660 nM [falling, single point]","580 nM [falling, single point]"
Nc1nnc2c(n1)CCCC2,18.6%,–,"1030 nM [falling, full curve]"
O=C(NCCNC(=O)c1cc(Cl)ccc1Cl)c1ccco1,1.67%,–,–
Cc1noc(C)c1CSc1ncnc2sc3c(c12)CCC3,16.2%,–,"130 nM [rising, full curve, poor fit]"
CCN(N)C(=S)Nc1ccc(F)cc1,24.3%,"116 nM [rising, full curve, poor fit]",–
COc1cc(C(=O)N(C)CCOc2ccc(C)cc2)ccc1OC1CCN(C(C)=O)CC1,-16.8%,–,–
CCN(CC)S(=O)(=O)c1cccc(-c2n[nH]c(=S)n2Cc2ccccc2)c1,12.7%,–,–
Cc1cc(C)nc(NC(=O)c2c(C(=O)O)noc2C)n1,10.7%,"366 nM [falling, full curve]",–
CCn1c(Cc2ccc(OC)cc2)nnc1SCC(=O)N1CCN(c2ccccc2)CC1,40.6%,"9200 nM [rising, partial curve]",–
O=C(CCc1nnc(CCC2CCCCC2)o1)NCc1ccon1,-16.7%,–,–
Cc1cccc(-n2c(O)c(C=Nc3ccc4c(c3)OCO4)c3ccccc3c2=O)n1,-0.705%,–,–
COc1cc(/C=C(\C#N)c2nn(CCO)c(N)c2C#N)cc(OC)c1OC,11.4%,–,"184 nM [rising, full curve]"
CCOc1ccccc1NC(=O)c1ccc2c(c1)C(=O)N(C(C)(C)C)C2=O,9.49%,–,–
Cc1cc(C)n(CC(=O)c2ccc(Cl)cc2)n1,1.9%,–,"2590 nM [rising, full curve, poor fit]"
O=C(CCS(=O)(=O)c1cccs1)Nc1ccc(C(=O)NCc2ccc(F)cc2)cc1,–,–,"130 nM [falling, full curve, poor fit]"
